# According to the supplement of paper PMC6411743:
# ± gives the standard deviation of the averaged measurements. Only a part is listed here, and it is no random draw.
# Key:
# Assay in all cases: NP40-soluble protein abundance relative to vehicle (solubility fold change) (ratio); higher = more soluble protein in presence of ATP
# CAMLG = molecular target: T1, CAMLG (UniProt P49069)
# T1 sequence (whole entry): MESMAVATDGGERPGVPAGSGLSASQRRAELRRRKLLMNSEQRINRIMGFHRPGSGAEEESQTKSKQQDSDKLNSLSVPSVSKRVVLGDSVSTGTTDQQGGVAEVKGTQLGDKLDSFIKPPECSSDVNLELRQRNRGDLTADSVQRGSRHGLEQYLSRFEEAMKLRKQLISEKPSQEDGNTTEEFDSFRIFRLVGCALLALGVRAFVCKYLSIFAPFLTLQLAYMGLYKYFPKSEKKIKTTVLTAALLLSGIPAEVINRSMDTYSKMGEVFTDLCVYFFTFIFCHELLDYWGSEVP
# Method in brief: (§1)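 Values are fold changes against the detergent-processed vehicle, based on vsn-normalised intensities. Jurkat crude lysate was treated at eight concentrations from 0.1 to 10 mM (10 min at room temperature, then 3 min at 37 °C), solubilised with 0.8% NP40 and benzonase, ultracentrifuged and analysed by TMT-labelled LC-MS/MS over three independent experiments.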
# GLRX = molecular target: T2, GLRX (UniProt P35754)
# T2 sequence (whole entry): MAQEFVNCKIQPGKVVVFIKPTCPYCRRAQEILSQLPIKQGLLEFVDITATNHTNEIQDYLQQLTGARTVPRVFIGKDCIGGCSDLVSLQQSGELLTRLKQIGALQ
# Method in brief: as §1
# HNRNPF = molecular target: T3, HNRNPF (UniProt P52597)
# T3 sequence (whole entry): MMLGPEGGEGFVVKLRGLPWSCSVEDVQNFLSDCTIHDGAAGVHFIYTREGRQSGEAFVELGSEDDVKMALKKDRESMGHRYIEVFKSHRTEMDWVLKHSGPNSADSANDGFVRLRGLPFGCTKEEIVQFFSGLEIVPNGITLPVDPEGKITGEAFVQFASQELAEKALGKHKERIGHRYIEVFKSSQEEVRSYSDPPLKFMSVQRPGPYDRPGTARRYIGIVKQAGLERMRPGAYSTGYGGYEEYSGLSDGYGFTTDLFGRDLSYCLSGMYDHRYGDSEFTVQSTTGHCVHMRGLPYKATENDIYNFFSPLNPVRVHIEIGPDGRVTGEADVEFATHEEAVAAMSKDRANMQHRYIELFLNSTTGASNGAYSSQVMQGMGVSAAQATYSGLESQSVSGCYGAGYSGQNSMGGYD
# Method in brief: as §1
# MDH2 = molecular target: T4, MDH2 (UniProt P40926)
# T4 sequence (whole entry): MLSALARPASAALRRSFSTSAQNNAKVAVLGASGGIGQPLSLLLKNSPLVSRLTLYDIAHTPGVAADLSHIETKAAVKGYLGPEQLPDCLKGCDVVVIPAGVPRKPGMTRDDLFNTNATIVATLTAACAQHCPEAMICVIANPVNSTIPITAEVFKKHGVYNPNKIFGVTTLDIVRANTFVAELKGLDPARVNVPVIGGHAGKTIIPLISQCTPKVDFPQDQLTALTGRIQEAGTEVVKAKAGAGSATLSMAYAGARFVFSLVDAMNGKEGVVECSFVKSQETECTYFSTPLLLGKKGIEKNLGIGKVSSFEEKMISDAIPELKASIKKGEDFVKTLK
# Method in brief: as §1
# PIP4K2A = molecular target: T5, PIP4K2A (UniProt P48426)
# T5 sequence (whole entry): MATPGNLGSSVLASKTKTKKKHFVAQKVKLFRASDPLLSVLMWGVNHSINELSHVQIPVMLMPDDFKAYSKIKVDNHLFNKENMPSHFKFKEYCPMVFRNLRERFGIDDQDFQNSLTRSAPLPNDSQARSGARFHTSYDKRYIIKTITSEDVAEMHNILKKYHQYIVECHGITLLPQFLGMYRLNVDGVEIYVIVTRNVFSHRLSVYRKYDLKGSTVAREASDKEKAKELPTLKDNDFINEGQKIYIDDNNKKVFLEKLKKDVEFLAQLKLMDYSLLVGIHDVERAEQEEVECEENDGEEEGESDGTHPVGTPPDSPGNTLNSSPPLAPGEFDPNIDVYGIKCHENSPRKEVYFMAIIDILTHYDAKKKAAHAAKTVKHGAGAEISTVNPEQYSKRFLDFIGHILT
# Method in brief: as §1
# PPM1A = molecular target: T6, PPM1A (UniProt P35813)
# T6 sequence (whole entry): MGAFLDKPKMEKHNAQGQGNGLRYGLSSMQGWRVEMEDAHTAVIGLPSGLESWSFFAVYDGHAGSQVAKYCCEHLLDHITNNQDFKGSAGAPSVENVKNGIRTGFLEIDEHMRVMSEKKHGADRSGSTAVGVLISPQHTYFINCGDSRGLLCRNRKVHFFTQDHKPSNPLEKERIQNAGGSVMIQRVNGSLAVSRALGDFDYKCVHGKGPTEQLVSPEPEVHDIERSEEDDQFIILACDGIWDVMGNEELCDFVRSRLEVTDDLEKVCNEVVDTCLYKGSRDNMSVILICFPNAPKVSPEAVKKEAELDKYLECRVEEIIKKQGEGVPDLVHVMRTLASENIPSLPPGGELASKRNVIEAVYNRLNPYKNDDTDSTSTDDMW
# Method in brief: as §1
# PPM1F = molecular target: T7, PPM1F (UniProt P49593)
# T7 sequence (whole entry): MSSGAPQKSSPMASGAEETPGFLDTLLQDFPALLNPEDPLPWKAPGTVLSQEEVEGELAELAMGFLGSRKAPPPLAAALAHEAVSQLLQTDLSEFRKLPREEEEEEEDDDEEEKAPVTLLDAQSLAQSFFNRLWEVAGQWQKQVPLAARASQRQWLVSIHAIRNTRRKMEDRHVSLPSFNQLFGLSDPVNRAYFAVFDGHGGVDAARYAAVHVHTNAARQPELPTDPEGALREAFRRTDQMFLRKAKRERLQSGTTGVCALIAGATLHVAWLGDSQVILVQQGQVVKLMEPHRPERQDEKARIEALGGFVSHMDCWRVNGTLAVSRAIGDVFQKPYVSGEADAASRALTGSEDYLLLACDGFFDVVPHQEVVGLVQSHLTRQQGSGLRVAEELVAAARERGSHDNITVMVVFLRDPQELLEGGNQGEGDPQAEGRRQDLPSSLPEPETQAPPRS
# Method in brief: as §1
# RAB9A = molecular target: T8, RAB9A (UniProt P51151)
# T8 sequence (whole entry): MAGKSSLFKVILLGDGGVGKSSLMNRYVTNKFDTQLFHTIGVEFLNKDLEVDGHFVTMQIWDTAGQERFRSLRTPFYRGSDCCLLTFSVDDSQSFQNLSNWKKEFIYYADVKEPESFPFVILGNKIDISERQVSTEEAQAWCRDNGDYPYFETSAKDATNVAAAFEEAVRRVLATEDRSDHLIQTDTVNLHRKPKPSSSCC
# Method in brief: as §1
smiles,measurement,setting,value
Nc1ncnc2c1ncn2[C@@H]1O[C@H](COP(=O)(O)OP(=O)(O)OP(=O)(O)O)[C@@H](O)[C@H]1O [adenosine triphosphate],NP40-soluble protein abundance,CAMLG; concentration: 1mM,0.901 ± 0.1
same,NP40-soluble protein abundance,CAMLG; concentration: 2mM,0.933 ± 0.037
same,NP40-soluble protein abundance,CAMLG; concentration: 4mM,0.903 ± 0.08
same,NP40-soluble protein abundance,CAMLG; concentration: 6mM,0.965 ± 0.052
same,NP40-soluble protein abundance,CAMLG; concentration: 8mM,0.882 ± 0.039
same,NP40-soluble protein abundance,CAMLG; concentration: 10mM,0.891 ± 0.062
same,NP40-soluble protein abundance,GLRX; concentration: 1mM,0.944 ± 0.092
same,NP40-soluble protein abundance,GLRX; concentration: 2mM,0.94 ± 0.075
same,NP40-soluble protein abundance,GLRX; concentration: 4mM,0.967 ± 0.077
same,NP40-soluble protein abundance,GLRX; concentration: 6mM,0.914 ± 0.059
same,NP40-soluble protein abundance,GLRX; concentration: 8mM,0.949 ± 0.047
same,NP40-soluble protein abundance,GLRX; concentration: 10mM,0.889 ± 0.092
same,NP40-soluble protein abundance,HNRNPF; concentration: 1mM,0.996 ± 0.043
same,NP40-soluble protein abundance,HNRNPF; concentration: 2mM,1 ± 0.04
same,NP40-soluble protein abundance,HNRNPF; concentration: 4mM,0.98 ± 0.053
same,NP40-soluble protein abundance,HNRNPF; concentration: 6mM,0.986 ± 0.075
same,NP40-soluble protein abundance,HNRNPF; concentration: 8mM,0.999 ± 0.049
same,NP40-soluble protein abundance,HNRNPF; concentration: 10mM,0.983 ± 0.04
same,NP40-soluble protein abundance,MDH2; concentration: 1mM,0.966 ± 0.022
same,NP40-soluble protein abundance,MDH2; concentration: 2mM,0.936 ± 0.017
same,NP40-soluble protein abundance,MDH2; concentration: 4mM,0.893 ± 0.0097
same,NP40-soluble protein abundance,MDH2; concentration: 6mM,0.961 ± 0.028
same,NP40-soluble protein abundance,MDH2; concentration: 8mM,0.901 ± 0.028
same,NP40-soluble protein abundance,MDH2; concentration: 10mM,0.897 ± 0.033
same,NP40-soluble protein abundance,PIP4K2A; concentration: 1mM,0.979 ± 0.011
same,NP40-soluble protein abundance,PIP4K2A; concentration: 2mM,1.04 ± 0.024
same,NP40-soluble protein abundance,PIP4K2A; concentration: 4mM,1.06 ± 0.056
same,NP40-soluble protein abundance,PIP4K2A; concentration: 6mM,1.14 ± 0.041
same,NP40-soluble protein abundance,PIP4K2A; concentration: 8mM,1.1 ± 0.042
same,NP40-soluble protein abundance,PIP4K2A; concentration: 10mM,1.08 ± 0.03
same,NP40-soluble protein abundance,PPM1A; concentration: 1mM,0.98 ± 0.023
same,NP40-soluble protein abundance,PPM1A; concentration: 2mM,0.973 ± 0.028
same,NP40-soluble protein abundance,PPM1A; concentration: 4mM,0.955 ± 0.025
same,NP40-soluble protein abundance,PPM1A; concentration: 6mM,1.01 ± 0.026
same,NP40-soluble protein abundance,PPM1A; concentration: 8mM,0.951 ± 0.03
same,NP40-soluble protein abundance,PPM1A; concentration: 10mM,0.944 ± 0.039
same,NP40-soluble protein abundance,PPM1F; concentration: 1mM,0.969 ± 0.018
same,NP40-soluble protein abundance,PPM1F; concentration: 2mM,0.9861 ± 0.0097
same,NP40-soluble protein abundance,PPM1F; concentration: 4mM,0.968 ± 0.015
same,NP40-soluble protein abundance,PPM1F; concentration: 6mM,0.978 ± 0.024
same,NP40-soluble protein abundance,PPM1F; concentration: 8mM,0.939 ± 0.043
same,NP40-soluble protein abundance,PPM1F; concentration: 10mM,0.947 ± 0.015
same,NP40-soluble protein abundance,RAB9A; concentration: 1mM,0.958 ± 0.061
same,NP40-soluble protein abundance,RAB9A; concentration: 2mM,0.985 ± 0.086
same,NP40-soluble protein abundance,RAB9A; concentration: 4mM,1 ± 0.012

# Some of the entries above in a different format:
smiles	measurement	setting	value
Nc1ncnc2c1ncn2[C@@H]1O[C@H](COP(=O)(O)OP(=O)(O)OP(=O)(O)O)[C@@H](O)[C@H]1O [adenosine triphosphate]	NP40-soluble protein abundance	PPM1F; concentration: 2mM	0.9861 ± 0.0097
same	NP40-soluble protein abundance	PPM1F; concentration: 4mM	0.968 ± 0.015
